Laboratory results: PubChem BioAssay AID1259254 (NCATS, 2017)
Screen: 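Finding genes that stop cells copying their DNA twice in one cycle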 (primary screen). Cells: human HCT116 colorectal cancer cells. Reagents: single siRNA against human genes. Duration: 3 days. Read-out: 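Nuclei stained with Hoechst and imaged; cell-cycle phase assigned by DNA content; G2 share scaled per plate, non-targeting siRNA 0%, GMNN siRNA 100%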. Scale: G2 robust z-score and G2 cells, % of GMNN control: higher = more G2 cells, more excess DNA replication; raw share of cells in G2: higher = larger share of cells with G2 DNA content. Active means: 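Active siRNAs have a G2 robust z of 5 or more median absolute deviations over the median, which in these data means about 38% or higher of GMNN control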.
Shown is a random part of about 59,000 reagents tested. In the full data, about 1,550 (2.6%) were called active. 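G2 share is only a proxy for re-replication; each gene was hit by three separate siRNAs, and active genes were retested.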 Raw values vary from plate to plate and are shown uncorrected. Reagents against one gene are numbered here. No sequences are given here. The record does not give: the amount of reagent.

gene,reagent,G2 robust z-score,"G2 cells, % of GMNN control",raw share of cells in G2 (%),activity call
OR6T1,1,-0.69,-1.88,2.89,inactive
OR6T1,2,-0.199,1.56,3.67,inactive
OR6T1,3,-0.114,2.17,3.89,inactive
TBX10,1,-1.28,-6.03,2.08,inactive
TBX10,2,0.246,4.7,6.79,inactive
TBX10,3,-0.434,-0.0854,5.87,inactive
TMEM123,1,0.752,8.26,9.51,inactive
TMEM123,2,0.742,8.19,8.48,inactive
TMEM123,3,-0.472,-0.351,4.35,inactive
STN1,1,2.23,18.6,12.2,inactive
STN1,2,0.235,4.62,6.33,inactive
STN1,3,-0.214,1.47,2.78,inactive
EBP,1,-0.665,-1.71,5.8,inactive
EBP,2,1.62,14.3,8.48,inactive
EBP,3,0.0335,3.2,7.09,inactive

Continued; the last 2 above are carried over.
gene,reagent,G2 robust z-score,"G2 cells, % of GMNN control",raw share of cells in G2 (%),activity call
EBP,2,1.62,14.3,8.48,inactive
EBP,3,0.0335,3.2,7.09,inactive
PIGW,1,0.727,8.08,9.4,inactive
PIGW,2,-0.781,-2.53,3.97,inactive
PIGW,3,0.383,5.66,6.35,inactive
NUDT22,1,-0.603,-1.28,3.68,inactive
NUDT22,2,-0.168,1.78,3.99,inactive
NUDT22,3,0.0234,3.13,3.36,inactive
NIPBL,1,-1.45,-7.22,1.7,inactive
NIPBL,2,-0.898,-3.35,2.49,inactive
NIPBL,3,-1.4,-6.91,0.885,inactive
PSME2,1,1.29,12,10.1,inactive
PSME2,2,-0.304,0.832,4.55,inactive
PSME2,3,-0.598,-1.24,2.91,inactive
MIPEP,1,0.207,4.42,5.56,inactive
MIPEP,2,3.19,25.4,14.4,inactive
MIPEP,3,0.0137,3.06,5.99,inactive
